In patent US20200283519A1 (IMCHECK THERAPEUTICS, published 2020):
Results are given in words; binding and its absence hold for the method and conditions named. Some entries that bind do so weakly or less than the wild type.

Amino acid sequences for entries named in this document (tags omitted). A change or cut given only in a name is not applied to a line headed by its entry.
UniProt Q7KYR7: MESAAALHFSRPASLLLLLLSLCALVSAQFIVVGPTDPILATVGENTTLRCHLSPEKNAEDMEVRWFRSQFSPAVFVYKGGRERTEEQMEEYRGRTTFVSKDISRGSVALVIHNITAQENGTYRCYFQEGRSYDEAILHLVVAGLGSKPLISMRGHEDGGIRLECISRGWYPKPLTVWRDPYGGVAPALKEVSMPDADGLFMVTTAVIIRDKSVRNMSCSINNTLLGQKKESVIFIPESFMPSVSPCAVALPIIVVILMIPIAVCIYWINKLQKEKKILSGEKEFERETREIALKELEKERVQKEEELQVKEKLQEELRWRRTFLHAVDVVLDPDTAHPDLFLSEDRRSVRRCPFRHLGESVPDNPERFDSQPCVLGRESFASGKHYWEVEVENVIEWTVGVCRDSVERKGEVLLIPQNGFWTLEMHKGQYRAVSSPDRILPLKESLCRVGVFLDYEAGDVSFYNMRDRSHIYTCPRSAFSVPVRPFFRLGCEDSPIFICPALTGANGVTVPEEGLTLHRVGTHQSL

Biological target: human BTN2A1 CFP(Nter)-fusion protein expressed on 293F BTN3/BTN2 KO cells (human) (UniProt Q7KYR7)
Test: flow cytometry on 293F BTN3/BTN2 KO cells transfected with BTN2A1-CFP

- binding: binds
B1: mAb6 (mouse anti-human BTN2 mAb 8.16) (antibody, V domains shown)
VH: EVKLLESGGGLVQPGGSLKLSCAASGFDFSGYWMTWVRQAPGKGLEWIGEINPDSSTINYTPSLRDKFIISRDNAKNTLYLQMSKVRSEDTALYFCARGSYYPSYWGQGTLVTVSA
VL: DIVLTQSPASLAVSLGQRATISCRASKSVSSSGYSYMNWYQQKPGQPPKLLIYLASNLESGVPARFSGSGSGTDFTLNIHPVEDEDAATYYCQHSRELPHTFGGGTKLEIK
notes: Mouse IgG1 purified from hybridoma supernatant; also called CNCM I-5236
